Test results from US20240122890A1, “USE OF EXOGENOUS KETONE ESTERS TO INDUCE WEIGHT LOSS IN MAMMALS” (Buck Institute for Research on Aging, priority 2021, published 2024).
For at least one compound, name, drawing or mass did not settle the structure.

Assay: Body weight of mice swapped to a diet containing 20% KE
Format: in vivo, C57/BL6 mice
Settings: male and female mice; diet containing 20% KE (by weight); FIG. 2
Excerpt: Male (n=10) and female (n=10) C57/BL6 mice were fed control diet for one week. The next week n=5 male and n=5 female mice were swapped to a diet containing 20% KE (by weight) mixed into a custom-made diet.

Structure (SMILES): CCCCCC(=O)OCC[C@@H](C)OC(=O)CCCCC [KE, bis hexanoyl (R)-1,3-butanediol]
- body weight: All animals lost weight
